We go through 4 molecules from paper PMC6030064.

Amino acid sequences for entries named in this document (tags omitted). A change or cut given only in a name is not applied to a line headed by its entry.
UniProt O15047: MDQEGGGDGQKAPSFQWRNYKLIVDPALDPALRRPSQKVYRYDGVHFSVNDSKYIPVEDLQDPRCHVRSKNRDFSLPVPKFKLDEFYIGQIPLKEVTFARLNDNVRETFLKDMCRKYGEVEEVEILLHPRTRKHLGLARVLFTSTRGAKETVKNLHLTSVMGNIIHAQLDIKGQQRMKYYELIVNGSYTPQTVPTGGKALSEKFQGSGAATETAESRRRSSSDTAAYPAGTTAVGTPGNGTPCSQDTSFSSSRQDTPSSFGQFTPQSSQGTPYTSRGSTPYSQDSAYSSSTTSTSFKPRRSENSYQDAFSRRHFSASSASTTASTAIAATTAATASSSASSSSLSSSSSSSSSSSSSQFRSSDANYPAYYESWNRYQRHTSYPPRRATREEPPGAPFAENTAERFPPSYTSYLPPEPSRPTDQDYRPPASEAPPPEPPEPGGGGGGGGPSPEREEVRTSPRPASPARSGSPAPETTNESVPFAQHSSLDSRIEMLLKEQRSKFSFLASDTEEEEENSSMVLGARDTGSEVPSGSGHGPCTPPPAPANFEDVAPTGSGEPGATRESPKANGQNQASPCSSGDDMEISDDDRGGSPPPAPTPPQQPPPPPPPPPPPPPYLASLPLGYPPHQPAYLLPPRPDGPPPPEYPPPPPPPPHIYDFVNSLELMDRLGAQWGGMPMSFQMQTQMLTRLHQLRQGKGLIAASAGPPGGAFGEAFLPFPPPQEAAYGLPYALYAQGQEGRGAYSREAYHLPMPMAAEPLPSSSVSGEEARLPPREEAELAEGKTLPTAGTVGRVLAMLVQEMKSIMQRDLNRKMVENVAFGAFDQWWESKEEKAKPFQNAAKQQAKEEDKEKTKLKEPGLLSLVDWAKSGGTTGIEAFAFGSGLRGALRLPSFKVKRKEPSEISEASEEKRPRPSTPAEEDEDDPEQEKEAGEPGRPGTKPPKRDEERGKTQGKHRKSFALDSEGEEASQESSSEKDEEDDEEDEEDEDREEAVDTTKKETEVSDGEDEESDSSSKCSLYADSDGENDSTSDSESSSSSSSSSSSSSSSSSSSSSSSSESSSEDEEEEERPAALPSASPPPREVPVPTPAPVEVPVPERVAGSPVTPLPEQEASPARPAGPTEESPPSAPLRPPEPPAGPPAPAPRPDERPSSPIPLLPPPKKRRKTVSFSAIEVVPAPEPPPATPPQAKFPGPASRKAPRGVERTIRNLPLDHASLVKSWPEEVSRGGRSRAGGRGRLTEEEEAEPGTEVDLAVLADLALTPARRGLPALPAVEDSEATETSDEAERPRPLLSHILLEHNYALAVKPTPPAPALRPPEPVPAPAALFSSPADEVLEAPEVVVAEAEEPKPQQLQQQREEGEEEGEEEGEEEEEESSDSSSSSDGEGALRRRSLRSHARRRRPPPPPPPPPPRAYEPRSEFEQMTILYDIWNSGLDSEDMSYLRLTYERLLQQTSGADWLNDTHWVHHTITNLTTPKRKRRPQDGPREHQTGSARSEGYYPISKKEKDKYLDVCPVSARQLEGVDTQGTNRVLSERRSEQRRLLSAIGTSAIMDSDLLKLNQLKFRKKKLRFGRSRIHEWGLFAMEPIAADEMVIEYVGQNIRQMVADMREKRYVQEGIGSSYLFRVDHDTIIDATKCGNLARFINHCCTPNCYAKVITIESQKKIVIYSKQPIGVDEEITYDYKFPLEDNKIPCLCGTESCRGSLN
UniProt P48432: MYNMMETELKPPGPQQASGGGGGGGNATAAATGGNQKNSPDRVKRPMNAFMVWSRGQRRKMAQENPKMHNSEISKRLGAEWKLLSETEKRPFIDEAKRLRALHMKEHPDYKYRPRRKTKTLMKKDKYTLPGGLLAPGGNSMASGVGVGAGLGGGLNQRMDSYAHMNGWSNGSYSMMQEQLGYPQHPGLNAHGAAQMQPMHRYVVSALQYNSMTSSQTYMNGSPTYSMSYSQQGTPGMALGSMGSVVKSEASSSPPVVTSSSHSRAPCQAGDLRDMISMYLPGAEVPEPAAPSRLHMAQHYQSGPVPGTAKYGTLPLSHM

Assay [1] has as its target T1, recombinant GST-Uhrf1 (UniProt Q8VDF2).
T1 sequence: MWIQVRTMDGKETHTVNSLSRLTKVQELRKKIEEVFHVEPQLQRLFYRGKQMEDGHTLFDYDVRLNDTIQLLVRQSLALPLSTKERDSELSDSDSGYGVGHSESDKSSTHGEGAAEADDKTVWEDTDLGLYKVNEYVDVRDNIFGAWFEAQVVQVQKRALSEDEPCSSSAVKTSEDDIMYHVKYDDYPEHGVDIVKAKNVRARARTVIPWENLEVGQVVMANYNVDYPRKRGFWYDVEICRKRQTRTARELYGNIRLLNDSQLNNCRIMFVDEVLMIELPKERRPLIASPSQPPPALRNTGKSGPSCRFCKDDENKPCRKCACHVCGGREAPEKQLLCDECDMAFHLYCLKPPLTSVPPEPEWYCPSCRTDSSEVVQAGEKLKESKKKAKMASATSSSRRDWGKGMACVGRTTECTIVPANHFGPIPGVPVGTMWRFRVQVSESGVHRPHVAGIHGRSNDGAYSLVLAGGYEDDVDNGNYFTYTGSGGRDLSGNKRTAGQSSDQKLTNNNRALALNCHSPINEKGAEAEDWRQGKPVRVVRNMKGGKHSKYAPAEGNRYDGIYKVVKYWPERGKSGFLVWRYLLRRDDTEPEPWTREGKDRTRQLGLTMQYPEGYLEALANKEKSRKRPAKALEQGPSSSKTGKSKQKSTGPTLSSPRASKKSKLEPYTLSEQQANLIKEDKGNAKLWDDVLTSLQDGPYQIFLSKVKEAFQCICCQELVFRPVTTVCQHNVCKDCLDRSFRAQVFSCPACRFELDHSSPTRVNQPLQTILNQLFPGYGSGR
Put plainly: pull-down; purified GST-Uhrf1 incubated with SETD1A-198H (0.15 and 0.3 ug) in 25 mM HEPES, 100 mM NaCl, 0.02% Triton X-100, 5% glycerol, 5% BSA, 1 mM DTT; Uhrf1 pulled down with an Uhrf1 antibody and agarose beads; western blot with a GST antibody; both purified.

Assay [2] concerns the target T2, Uhrf1 (co-IP of Fig. 3c and Fig. 5a) (UniProt Q8VDF2).
T2 sequence: T1 sequence
In words: co-IP; series of SETD1A constructs with given deletions, co-IP with Uhrf1 (Fig. 3c); cells not given.

In assay [3] the target is T2, Uhrf1 (co-IP of Fig. 3c and Fig. 5a). In words: co-IP; co-IP of Uhrf1 with core pluripotent factors (Fig. 5a); cells not given.
The target is the same in assay [4]. The description is as above. The source holds these as a separate data set.

Results are given in words; binding and its absence hold for the method and conditions named. For some of these results: In cells and extracts the contact can be indirect. Some binding calls cover weakened binding; strength is not graded here. For some of these results: Tags and fused reporters may be left off the sequences shown.

For the molecule “GST-tagged recombinant human partial SETD1A protein (SETD1A-198H, amino acid 1418-end) (from UniProt O15047 1418-1707) (domain or fragment)”, the binding entry in assay [1] is “binds”.

As to “SETD1A (parent of the deletion constructs of Fig. 3c) (from UniProt O15047 1-1707) (enzyme)”, in assay [2], the binding entry was “binds”.

In the case of Sox2 (from UniProt P48432 1-319), in assay [3], the binding result is recorded as “binds weakly”.

B1: Nanog (protein, UniProt Q80Z64 1-305)
chain: MSVGLPGPHSLPSSEEASNSGNASSMPAVFHPENYSCLQGSATEMLCTEAASPRPSSEDLPLQGSPDSSTSPKQKLSSPEADKGPEEEENKVLARKQKMRTVFSQAQLCALKDRFQKQKYLSLQQMQELSSILNLSYKQVKTWFQNQRMKCKRWQKNQWLKTSNGLIQKGSAPVEYPSIHCSYPQGYLVNASGSLSMWGSQTWTNPTWSSQTWTNPTWNNQTWTNPTWSSQAWTAQSWNGQPWNAAPLHNFGEDFLQPYVQLQQNFSASDLEVNLEATRESHAHFSTPQALELFLNYSVTPPGEI
Take B1: in assay [4], the binding entry was “no binding”.
